# Patent publication US11207379B2, “Peptides with anti-cancer activity” (IDP DISCOVERY PHARMA, S.L., priority 2016, dated 2021)
# At least one structure is not confirmed: it was looked up by name or label, or the drawing left a doubt. Numbered stars: 1 amine (or outer) side, 2 acyl side, 3 side chain; on linkers, the order of the positions; unused ones are H or OH. Bridge positions count the residues as written; N and C are the ends. Square brackets hold non-standard residues; d marks the D form. Peptide text beside a SMILES is read from it. ξ: configuration not given here. ξαMeNle(6-ylidene) = CC(CCCC=[*:3])(N[*:1])C(=O)[*:2]; X1 = CC(CCCCCCC=[*:3])(N[*:1])C(=O)[*:2]
# How the values were obtained:
# Assay type in all cases: cell-based
# [1] = biological target: MM.1S, B Lymphoblast (multiple myeloma); experiment: Viability assay (MTT, Alamar Blue, hexosaminidase), 72 h; settings: MM.1S cells
# Protocol: MM.1S, B Lymphoblast (multiple myeloma), ATCC: CRL-2974
# (§1) Cell lines A549, MCF-7 and RAMOS were cultured in incubator under CO2 (6%) at 37° C. in DMEM high glucose (Dulbecco's Modified Eagle Solution, Gibco-BRL 31966-21) medium with 10% fetal bovine serum inactivated (FBS) (Gibco-BRL 10106-169). Cell lines HL-60 and MM.1S were cultured in incubator at 37° C. in RPMI-1640 (Sigma R8758) medium with 10% of fetal bovine serum inactivated (FBS) and 2 mM glutamine (Sigma G7513). Cell lines BJ were cultured in incubator under CO2 (6%) at 37° C. in Eagle's Minimum Essential Medium (Sigma, M-2279) with 10% fetal bovine serum inactivated (FBS) (Gibco-BRL 10106-169).
# (§2) During the amplification step and the assays adherent cells were rinsed with DPBS (Dulbecco's Phosphate Buffered Saline, Sigma D1283) three times and afterward treated for 5 minutes with trypsin ([…]) (Gibco-BRL, 15400054) in solution of DPBS at 37° C., and, once detached, transferred in the culturing medium. No-adherent cells were centrifuged and transferred in the culturing medium. Cells were counted in a Neubauer chamber after labelling with Tripan-Blue.
# (§3) A549, MCF-7 and JB cells were seeded at a density of 5000 cells/well and HL-60, MM.1S and Ramos at 10000 cells/well in 100 μl of medium in 96 well plates. After 24 h, the compounds to be tested were added to calculate the dose/response curve at the starting concentration of 100 μM with serial dilutions (1:1). Controls are the untreated cells. Each experiment was performed in triplicate.
# (§4) Cells were incubated during 72 h in incubator under CO2 atmosphere at 37° C. Cell viability was measured by means of MTT (3-(4,5-dimethylthiazol-2-yl)-2.5-diphenyltetrazolium bromide) assay, Alamar Blue® (Biosource DAL1100) and Hexosaminidase activity test, consecutively, following manufacturer instructions.
# (§5) MTT: 1. Stock solution of MTT (475989 Calbiochem) was 5 mg/ml in PBS 1×. As negative control (experiment noise) 3 wells were treated with 20 μl/well of a solution of SDS 10% in H2O. […] Absorbance at 570 nm was finally measured.
# (§6) Alamar Blue: 10 μl Alamar Blue solution was added to each well and the plates were incubated for […] in the incubator. Fluorescence ratio at 535/590 (excitation/emission) was measured in Cytofluor (Millipore) fluorimeter. Blank control was determined by lysis of untreated cells with con 2% of Triton X100, right before adding Alamar Blue solution. […]
# (§7) Data analysis was performed calculating the percentage of cell viability normalized vs. the values of negative control, which was considered equal to 100%. The dose/response curve was fitted through the sigmoidal equation dose-response (variable slope) and the EC50 values were calculated as follow: Y=Bottom+(Top−Bottom)/(1+10^{[(Log EC50−X)*HillSlope]},
# A549 cells = experiment: Annexin V assay by flow cytometry
# Protocol: Miltenyi Biotec Annexin V-FITC Kit was used. To detect apoptosis in early stage Phosphatidylserine in plasmatic membrane localization was measured, though the calcium dependent reaction with Annexine V. Annexin V molecules were labelled with different fluorophores (FITC) and analyzed by FACS. To detect apoptosis in late stage DNA-intercalating agents, such Propidium iodide (PI) were used.
# Cells were seeded at a density range of 150000-30000 cells/well in 12 wells plates, and incubated at 37° C. in the incubator under CO2 atmosphere. After 24 h, […] A549, HL-60 and MM.1S, at IC30 and/or IC80, with compounds IDP-S09 and IL-09, in cell lines HL-60 and MM.1S with compound IDP-S04 and in cell line A549 with compounds IDP-S02 and IDP-S03. Staurosporine and compound 100258-F4 (Sigma) were used as positive control and reference compound, respectively.
# [2] = biological target: HL-60, promyeloblast (acute myelocytic leukemia, AML); experiment: Viability assay (MTT, Alamar Blue, hexosaminidase), 72 h; settings: HL-60 cells
# Protocol: HL-60, promyeloblast (acute myelocytic leukemia, AML), ECACC: 98070106
# as §1, §2, §3, §4, §5, §6, §7
# [3] = biological target: MCF-7, epithelial (breast cancer); experiment: as above; settings: MCF7 cells
# Protocol: MCF-7, epithelial (breast cancer), ECACC: 86012803
# as §1
# as §2, with “No-adherent cells were centrifuged and transferred in the culturing medium.” left out, “Tripan-Blue. […]” for “Tripan-Blue.”
# as §4, with “instructions. […]” for “instructions.”
# [4] = biological target: A549, epithelial (lung cancer); experiment: as above; settings: A549 cells
# Protocol: A549, epithelial (lung cancer), ATCC:CCL-185
# as §1
# as §2, with “No-adherent cells were centrifuged and transferred in the culturing medium.” left out, “Tripan-Blue. […]” for “Tripan-Blue.”
# as §4, with “instructions. […]” for “instructions.”
# [5] = tested on: JB healthy cells (BJ, fibroblast, normal skin); experiment: as above
# Protocol: BJ, fibroblast (normal skin), ATCC® CRL-2522™
# as §1
# as §2, with “No-adherent cells were centrifuged and transferred in the culturing medium.” left out, “Tripan-Blue. […]” for “Tripan-Blue.”
# as §4, with “instructions. […]” for “instructions.”
# [6] = biological target: RAMOS, B lymphocyte (Burkitt's Lymphoma); experiment: as above; settings: Ramos cells
# Protocol: RAMOS, B lymphocyte (Burkitt's Lymphoma), ATCC: CRL-1596
# as §1
# as §2, with “No-adherent cells were centrifuged and transferred in the culturing medium.” left out, “Tripan-Blue. […]” for “Tripan-Blue.”
# as §4, with “instructions. […]” for “instructions.”
# [7] = read-out: Concentration corresponding to the IC80
smiles,measurement,setting,value
"CC[C@H](C)[C@H](NC(=O)[C@H](Cc1ccc(O)cc1)NC(=O)[C@H](C)NC(=O)C1(C)CCCC=CCCCCCCC(C)(NC(=O)[C@H](CCCCN)NC(=O)[C@@H]2CCCN2C(=O)[C@H](C)N)C(=O)N[C@@H](C(C)C)C(=O)N[C@@H]([C@@H](C)CC)C(=O)N[C@@H](CC(C)C)C(=O)N[C@@H](CCCCN)C(=O)N[C@@H](CCCCN)C(=O)N[C@@H](C)C(=O)N1)C(=O)N[C@@H](CC(C)C)C(=O)N[C@@H](CO)C(=O)O (some centres unmarked) [IDP-S09, APKXVILKKAXAYILS-OH] (H-APK[X1]VILKKA[ξαMeNle(6-ylidene)]AYILS-OH; staple 4-11; N-terminus assumed)",EC50,[1]; 72 h,~6.2 µM
same,IC80,[1]; [7],18 µM
same,Percentage of A549 gated cells (positive to Annexin V),"A549 cells; 4 h, compound at EC30, control = 100%",2500%
same,Percentage of A549 gated cells (positive to Annexin V),"A549 cells; 4 h, compound at EC80, control = 100%",2500%
same,Percentage of A549 gated cells (positive to Annexin V),"A549 cells; 16 h, compound at EC30, control = 100%",2000%
same,Percentage of A549 gated cells (positive to Annexin V),"A549 cells; 16 h, compound at EC80, control = 100%",1800%
same,Percentage of A549 gated cells (positive to Annexin V),"A549 cells; 48 h, compound at EC30, control = 100%",300%
same,Percentage of A549 gated cells (positive to Annexin V),"A549 cells; 48 h, compound at EC80, control = 100%",300%
same,Percentage of A549 gated cells (positive to Annexin V),"A549 cells; 72 h, compound at EC30, control = 100%",300%
same,Percentage of A549 gated cells (positive to Annexin V),"A549 cells; 72 h, compound at EC80, control = 100%",450%
same,"apoptosis induction (Annexin V by FACS), in words",A549 cells; A549 cells,fast induction (4 h) is observed
same,EC50,[2]; 72 h,3.5 ± 0.2 µM
same,IC80,[2]; [7],4.4 µM
same,EC50,[3],9 ± 1 µM
same,EC50,[4],9.4 ± 4.1 µM
same,EC50,[5],47 ± 0.2 µM
same,EC50,[6],~28 µM
